EP2348038A1, “Method for determining the activity of transglutaminase factor XIIIa” (PHILIPPS-UNIVERSITÄT MARBURG, priority 2010, dated 2011)
At least one peptide structure holds a part that was inferred or is arguable (an end, a ring closure or a residue). Peptide text beside a SMILES is read from it. * marks the point of attachment. pNA = O=[N+]([O-])c1ccc(N*)cc1

Target: T1, Faktor XIIIa (Homo sapiens, UniProt P00488)
T1 construct: Aktivierung des Zymogens FXIII zu Faktor XIIIa; purchased Aventis Behring Fibrogammin HS
T1 sequence (P00488 39-732 limits assumed): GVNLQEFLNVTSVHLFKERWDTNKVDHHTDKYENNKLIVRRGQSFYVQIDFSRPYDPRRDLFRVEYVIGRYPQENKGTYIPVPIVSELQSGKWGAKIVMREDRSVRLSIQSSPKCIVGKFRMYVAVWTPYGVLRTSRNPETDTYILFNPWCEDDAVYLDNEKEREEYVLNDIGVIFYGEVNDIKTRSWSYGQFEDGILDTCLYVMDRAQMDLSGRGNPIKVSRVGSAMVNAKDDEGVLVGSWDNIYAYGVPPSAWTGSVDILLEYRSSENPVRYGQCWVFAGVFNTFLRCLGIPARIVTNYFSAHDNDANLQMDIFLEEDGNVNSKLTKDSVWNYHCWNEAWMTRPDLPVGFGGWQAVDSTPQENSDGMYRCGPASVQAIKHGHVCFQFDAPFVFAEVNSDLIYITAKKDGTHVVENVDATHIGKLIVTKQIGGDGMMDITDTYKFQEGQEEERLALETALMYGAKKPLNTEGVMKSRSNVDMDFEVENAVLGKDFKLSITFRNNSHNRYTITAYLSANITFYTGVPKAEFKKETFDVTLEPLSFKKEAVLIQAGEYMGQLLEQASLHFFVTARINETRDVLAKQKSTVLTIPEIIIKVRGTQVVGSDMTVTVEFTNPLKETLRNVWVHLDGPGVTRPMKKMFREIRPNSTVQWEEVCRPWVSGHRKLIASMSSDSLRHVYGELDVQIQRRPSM
Test: Cleavage of pNA substrates by activated factor XIIIa, absorbance at 405 nm (Michaelis-Menten kinetics and pre-test)
Format: biochemical
Details: change of absorbance at 405 nm per s, 37 °C, enzyme ca. 1,25 Einheiten/ml
Method: 250 Einheiten lyophilisiertes Fibrogammin HS (Aventis Behring) wurden in 4 ml Wasser gelöst, als 100 µl Portionen aliquotiert und bei -80 °C gelagert. 100 µl dieser Lösung enthalten 6,25 Einheiten FXIII.
100 µl des aliqotierten Fibrogammins (entspricht 6,25 Einheiten) wurden mit 500 µl TBS-Puffer (50 mM Tris-HCl, pH 7,5 in 0,9% (w/v) NaCl), 360 µl einer 0.9 % NaCl-Lösung, 10 µl einer 1 M CaCl2-Lösung und 20 µl einer Thrombinlösung (Rinderthrombin: 14,2 U in 20 µl) versetzt. Der Ansatz wurde 20 min bei 37 °C inkubiert, danach wurden 10 µl einer Lösung mit rekombinantem Hirudin zugesetzt (r-Hirudin: HBW 023 mit 13442 IU mg^-1, Stammlösung des r-Hirudin = 1 mg/ml). Dieser Aktivierungsansatz besitzt ein Gesamtvolumen von 1 ml, der aktivierte Faktor Xllla wurde bei 37 °C aufbewahrt und für die folgenden kinetischen Messungen verwendet.
Die Messungen wurden bei 405 nm und 37 °C mit einem Microplate Reader der Firma Labsystems (iEMS Reader MF) mit folgendem Messansatz durchgeführt: • 150 µl TBS-Puffer (siehe oben, der Puffer kann gegebenenfalls auch eine Aminkomponente enthalten, beispielsweise H-Gly-Ethylester oder H-Gly-Gly-Ethylester oder ein anderes Amin, falls vorhanden ist die finale Konzentration des Amins im Messansatz 2,5 mM oder höher) • 50 µl Substratlösung • 50 µl Enzymlösung (im Messansatz ca. 1,25 Einheiten/ml) […]

With `CC[C@H](C)[C@H](NC(=O)[C@H](CCC(=O)Nc1ccc([N+](=O)[O-])cc1)NC(=O)[C@@H](N)Cc1ccc(O)cc1)C(=O)N[C@@H](CCCCN)C(=O)N[C@H](C(=O)N[C@H](C(=O)NCC(N)=O)[C@@H](C)CC)C(C)C` [Substrat S14, Tyr-Glu(pNA)-Ile-Lys-Val-Ile-Gly-NH2] (H-YE(pNA)IKVIG-NH2) the Vmax was 1,2 × 10^-4 dOD/s.
